Drawing on patent US9952227B2, “Method for detecting bilirubin” (Research Foundation of the City University of New York, priority 2015, dated 2018), this text covers O2 requirement for two molecules.

This series can be described thus: O2 requirement for fluorescence. Type of series: physicochemical.

B1: Chlopsid FP II: bilirubin-inducible fluorescent fatty acid-binding protein from Kaupichthys n. sp., SEQ ID NO: 2 (protein)
chain: MFEDFLGTWECIDSQNFGAYLAAVGAPPVLSDRADATRPTVYFNRDGDKLSLKVEHGPPPLKDVILSFKLGEEFDEHPTDGRKCKTLVTFEGDKLLYLQKWDGKETVVVREIRDGNVVATLSHEGVVALRVYKKVAGPTA
modifications: Kaupichthys hyoproroides
With B1, the O2 requirement result was “no”.

B2: Chlopsid FP I: bilirubin-inducible fluorescent fatty acid-binding protein from Kaupichthys hyoproroides, SEQ ID NO: 1 (protein)
chain: MFEDFLGTWKCIDSQNFGAYLAAIGAPPVLSERADATRPTVHFNRDGDKLSLKVEHGPPPLKDVLLSFKLGEEFDEHPTDGRKCKTLVTFEGDKLLYLQKWDGKETVVVREIRDGNVVATLSHEGVVALRVYKKVAGPTALE
modifications: Kaupichthys hyoproroides
As to B2, the O2 requirement result is listed as “no”.
